Data: article doi:10.1101/2021.12.13.472398
Results are given in words; binding and its absence hold for the method and conditions named. In cells and extracts the contact can be indirect. Some results given as binding are weak or reduced against the parent protein; the word gives no strength.

Protein sequences, listed by entry. Tags and fused reporters are not part of them.
UniProt P06537: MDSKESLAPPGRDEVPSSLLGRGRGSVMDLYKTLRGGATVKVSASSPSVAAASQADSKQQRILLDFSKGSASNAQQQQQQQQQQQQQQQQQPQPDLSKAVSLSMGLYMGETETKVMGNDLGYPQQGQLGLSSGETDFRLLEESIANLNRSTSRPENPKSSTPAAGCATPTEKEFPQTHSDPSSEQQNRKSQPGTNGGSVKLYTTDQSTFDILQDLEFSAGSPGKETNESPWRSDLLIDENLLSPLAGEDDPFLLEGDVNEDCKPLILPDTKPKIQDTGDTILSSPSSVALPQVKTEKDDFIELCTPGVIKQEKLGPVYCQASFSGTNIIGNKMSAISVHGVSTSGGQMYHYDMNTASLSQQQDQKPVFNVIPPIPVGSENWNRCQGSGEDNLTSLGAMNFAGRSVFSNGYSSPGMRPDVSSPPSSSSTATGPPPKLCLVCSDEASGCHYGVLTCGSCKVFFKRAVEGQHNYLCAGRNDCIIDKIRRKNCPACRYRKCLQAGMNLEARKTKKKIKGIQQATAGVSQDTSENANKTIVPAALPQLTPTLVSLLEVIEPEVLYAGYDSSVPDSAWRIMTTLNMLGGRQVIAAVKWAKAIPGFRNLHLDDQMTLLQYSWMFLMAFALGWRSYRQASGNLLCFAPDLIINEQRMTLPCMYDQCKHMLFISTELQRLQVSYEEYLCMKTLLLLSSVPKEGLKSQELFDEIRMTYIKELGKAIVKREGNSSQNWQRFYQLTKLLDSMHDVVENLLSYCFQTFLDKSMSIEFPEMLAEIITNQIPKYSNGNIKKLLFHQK
UniProt O54941: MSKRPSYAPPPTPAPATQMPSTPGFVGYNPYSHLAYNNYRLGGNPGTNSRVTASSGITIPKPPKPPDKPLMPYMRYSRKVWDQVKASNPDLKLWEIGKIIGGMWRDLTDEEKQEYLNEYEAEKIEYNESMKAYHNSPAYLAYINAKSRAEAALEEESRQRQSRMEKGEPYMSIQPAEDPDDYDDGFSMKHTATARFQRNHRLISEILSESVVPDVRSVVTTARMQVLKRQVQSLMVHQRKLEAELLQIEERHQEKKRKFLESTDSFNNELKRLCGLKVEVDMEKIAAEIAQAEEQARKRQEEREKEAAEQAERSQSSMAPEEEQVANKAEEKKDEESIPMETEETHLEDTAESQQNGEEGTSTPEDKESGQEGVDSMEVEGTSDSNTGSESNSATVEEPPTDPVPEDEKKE
UniProt Q3TKT4: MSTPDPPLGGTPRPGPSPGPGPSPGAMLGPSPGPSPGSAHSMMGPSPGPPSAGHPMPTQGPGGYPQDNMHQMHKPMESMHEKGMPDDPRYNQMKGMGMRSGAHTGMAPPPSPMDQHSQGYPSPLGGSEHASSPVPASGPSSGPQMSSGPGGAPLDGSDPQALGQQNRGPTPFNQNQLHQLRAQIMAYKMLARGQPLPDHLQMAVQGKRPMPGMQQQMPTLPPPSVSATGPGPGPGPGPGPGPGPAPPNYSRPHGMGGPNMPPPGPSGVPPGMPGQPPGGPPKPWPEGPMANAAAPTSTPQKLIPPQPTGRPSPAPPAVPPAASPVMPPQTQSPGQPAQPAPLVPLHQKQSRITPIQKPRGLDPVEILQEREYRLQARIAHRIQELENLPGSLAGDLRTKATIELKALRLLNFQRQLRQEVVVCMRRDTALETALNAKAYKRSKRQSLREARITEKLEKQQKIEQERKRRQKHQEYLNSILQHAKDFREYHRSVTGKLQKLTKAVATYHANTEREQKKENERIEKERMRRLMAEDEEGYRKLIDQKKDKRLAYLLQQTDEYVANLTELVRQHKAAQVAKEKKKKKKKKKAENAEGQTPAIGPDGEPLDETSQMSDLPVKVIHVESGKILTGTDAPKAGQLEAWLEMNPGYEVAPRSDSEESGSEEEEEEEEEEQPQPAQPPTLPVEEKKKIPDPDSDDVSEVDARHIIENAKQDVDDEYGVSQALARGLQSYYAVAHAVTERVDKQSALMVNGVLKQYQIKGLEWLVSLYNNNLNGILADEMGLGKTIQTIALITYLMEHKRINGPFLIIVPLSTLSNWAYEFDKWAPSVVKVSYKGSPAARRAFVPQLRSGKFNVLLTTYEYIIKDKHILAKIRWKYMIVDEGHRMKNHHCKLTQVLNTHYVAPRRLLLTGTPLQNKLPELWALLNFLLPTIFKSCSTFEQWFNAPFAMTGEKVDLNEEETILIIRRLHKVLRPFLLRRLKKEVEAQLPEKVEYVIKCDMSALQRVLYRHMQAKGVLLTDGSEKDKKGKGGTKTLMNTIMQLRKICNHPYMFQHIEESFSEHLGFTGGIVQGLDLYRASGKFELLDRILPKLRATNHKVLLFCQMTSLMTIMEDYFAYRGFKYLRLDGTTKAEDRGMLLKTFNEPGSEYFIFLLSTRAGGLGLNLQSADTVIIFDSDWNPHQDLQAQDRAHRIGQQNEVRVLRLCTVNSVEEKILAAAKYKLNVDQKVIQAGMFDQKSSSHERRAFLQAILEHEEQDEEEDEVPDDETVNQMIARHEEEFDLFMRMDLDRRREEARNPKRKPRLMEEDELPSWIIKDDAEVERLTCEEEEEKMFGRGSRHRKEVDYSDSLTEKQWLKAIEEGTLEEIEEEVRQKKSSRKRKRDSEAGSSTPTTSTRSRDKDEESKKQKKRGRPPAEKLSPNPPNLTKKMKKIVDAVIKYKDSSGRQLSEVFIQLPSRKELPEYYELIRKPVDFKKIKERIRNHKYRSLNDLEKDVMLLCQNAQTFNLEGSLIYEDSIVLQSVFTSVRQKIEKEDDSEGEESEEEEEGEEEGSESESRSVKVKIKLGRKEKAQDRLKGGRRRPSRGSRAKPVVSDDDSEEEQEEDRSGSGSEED
UniProt Q61466: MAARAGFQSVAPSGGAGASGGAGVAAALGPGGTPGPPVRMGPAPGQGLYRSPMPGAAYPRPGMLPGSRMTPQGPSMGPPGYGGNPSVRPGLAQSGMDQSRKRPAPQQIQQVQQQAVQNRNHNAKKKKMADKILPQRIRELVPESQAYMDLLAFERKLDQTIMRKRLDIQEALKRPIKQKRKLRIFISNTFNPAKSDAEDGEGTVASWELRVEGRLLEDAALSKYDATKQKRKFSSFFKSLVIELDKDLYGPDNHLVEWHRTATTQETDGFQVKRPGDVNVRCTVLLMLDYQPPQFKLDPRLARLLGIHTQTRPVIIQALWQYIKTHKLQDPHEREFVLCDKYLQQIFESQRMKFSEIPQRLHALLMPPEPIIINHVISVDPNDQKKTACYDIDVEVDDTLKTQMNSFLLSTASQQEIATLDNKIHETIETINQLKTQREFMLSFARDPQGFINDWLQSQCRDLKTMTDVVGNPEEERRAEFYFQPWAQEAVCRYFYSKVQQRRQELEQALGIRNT

Each substance was assayed against Glucocorticoid Receptor (mouse (endogenous in primary murine macrophages and RAW264.7)) (UniProt P06537) (assay: co-IP).

binding	Substance
binds	SMARCE1 (BAF57) (from UniProt O54941 1-411)
binds	SMARCA4 (BRG1) (from UniProt Q3TKT4 1-1613) (enzyme)
binds	SMARCD1 (BAF60A) (from UniProt Q61466 1-515)
